In the supplement of paper PMC10849652:
The list shows a part of the results.

Sequences of proteins named here, by UniProt entry; tags and fusion partners are left off. A change or cut given only in a name is not applied to a line headed by its entry.
UniProt P48739: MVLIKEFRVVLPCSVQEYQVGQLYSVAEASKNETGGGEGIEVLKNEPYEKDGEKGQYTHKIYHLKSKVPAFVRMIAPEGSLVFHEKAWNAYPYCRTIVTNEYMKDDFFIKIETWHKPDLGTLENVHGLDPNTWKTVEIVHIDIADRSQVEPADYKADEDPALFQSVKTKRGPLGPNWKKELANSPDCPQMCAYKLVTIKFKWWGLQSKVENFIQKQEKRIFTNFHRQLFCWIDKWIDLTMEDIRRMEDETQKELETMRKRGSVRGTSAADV
UniProt Q9NWS0, whole entry, looked up: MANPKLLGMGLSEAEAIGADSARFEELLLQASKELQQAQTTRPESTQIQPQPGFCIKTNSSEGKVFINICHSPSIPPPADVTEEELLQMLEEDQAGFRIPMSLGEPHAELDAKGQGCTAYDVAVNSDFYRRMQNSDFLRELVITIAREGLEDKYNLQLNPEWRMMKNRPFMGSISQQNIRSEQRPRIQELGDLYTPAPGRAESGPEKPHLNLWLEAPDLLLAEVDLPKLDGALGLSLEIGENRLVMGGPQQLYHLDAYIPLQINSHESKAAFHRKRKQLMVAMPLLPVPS
UniProt Q8WXW3: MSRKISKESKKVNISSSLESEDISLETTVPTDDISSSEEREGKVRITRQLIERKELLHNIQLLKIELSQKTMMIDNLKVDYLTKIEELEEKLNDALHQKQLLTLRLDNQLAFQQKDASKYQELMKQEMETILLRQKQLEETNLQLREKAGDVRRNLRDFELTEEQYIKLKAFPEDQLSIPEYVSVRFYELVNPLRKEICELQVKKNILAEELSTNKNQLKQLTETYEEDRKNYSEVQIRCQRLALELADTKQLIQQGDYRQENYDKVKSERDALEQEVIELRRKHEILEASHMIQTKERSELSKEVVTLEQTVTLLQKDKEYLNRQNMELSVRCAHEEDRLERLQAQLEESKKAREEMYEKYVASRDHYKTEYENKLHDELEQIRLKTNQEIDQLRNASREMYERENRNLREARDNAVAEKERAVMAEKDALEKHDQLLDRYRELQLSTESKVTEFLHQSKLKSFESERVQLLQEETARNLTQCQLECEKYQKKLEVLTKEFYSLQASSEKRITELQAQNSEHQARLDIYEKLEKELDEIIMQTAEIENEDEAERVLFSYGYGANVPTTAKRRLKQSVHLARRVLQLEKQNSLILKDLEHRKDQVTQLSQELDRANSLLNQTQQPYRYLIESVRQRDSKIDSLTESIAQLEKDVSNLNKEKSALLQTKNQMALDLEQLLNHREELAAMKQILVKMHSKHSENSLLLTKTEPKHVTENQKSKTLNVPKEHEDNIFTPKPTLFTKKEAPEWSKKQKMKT
UniProt Q96G03: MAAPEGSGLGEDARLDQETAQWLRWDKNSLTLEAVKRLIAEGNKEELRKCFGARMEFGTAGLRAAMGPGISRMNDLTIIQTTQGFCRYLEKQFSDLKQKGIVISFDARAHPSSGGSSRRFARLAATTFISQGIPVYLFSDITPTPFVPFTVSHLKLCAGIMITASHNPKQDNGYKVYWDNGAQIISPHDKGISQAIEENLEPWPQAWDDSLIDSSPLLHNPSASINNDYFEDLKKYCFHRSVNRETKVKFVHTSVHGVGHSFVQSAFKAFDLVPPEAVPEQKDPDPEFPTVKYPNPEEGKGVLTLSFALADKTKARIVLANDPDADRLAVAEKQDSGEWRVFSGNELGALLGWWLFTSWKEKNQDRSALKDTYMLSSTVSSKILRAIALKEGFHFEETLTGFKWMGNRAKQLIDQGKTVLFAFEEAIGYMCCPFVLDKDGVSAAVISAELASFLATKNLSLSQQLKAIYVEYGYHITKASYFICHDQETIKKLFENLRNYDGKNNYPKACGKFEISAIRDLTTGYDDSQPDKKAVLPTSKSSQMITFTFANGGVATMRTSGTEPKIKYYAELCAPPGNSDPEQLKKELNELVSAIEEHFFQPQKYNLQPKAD
UniProt Q86UU1: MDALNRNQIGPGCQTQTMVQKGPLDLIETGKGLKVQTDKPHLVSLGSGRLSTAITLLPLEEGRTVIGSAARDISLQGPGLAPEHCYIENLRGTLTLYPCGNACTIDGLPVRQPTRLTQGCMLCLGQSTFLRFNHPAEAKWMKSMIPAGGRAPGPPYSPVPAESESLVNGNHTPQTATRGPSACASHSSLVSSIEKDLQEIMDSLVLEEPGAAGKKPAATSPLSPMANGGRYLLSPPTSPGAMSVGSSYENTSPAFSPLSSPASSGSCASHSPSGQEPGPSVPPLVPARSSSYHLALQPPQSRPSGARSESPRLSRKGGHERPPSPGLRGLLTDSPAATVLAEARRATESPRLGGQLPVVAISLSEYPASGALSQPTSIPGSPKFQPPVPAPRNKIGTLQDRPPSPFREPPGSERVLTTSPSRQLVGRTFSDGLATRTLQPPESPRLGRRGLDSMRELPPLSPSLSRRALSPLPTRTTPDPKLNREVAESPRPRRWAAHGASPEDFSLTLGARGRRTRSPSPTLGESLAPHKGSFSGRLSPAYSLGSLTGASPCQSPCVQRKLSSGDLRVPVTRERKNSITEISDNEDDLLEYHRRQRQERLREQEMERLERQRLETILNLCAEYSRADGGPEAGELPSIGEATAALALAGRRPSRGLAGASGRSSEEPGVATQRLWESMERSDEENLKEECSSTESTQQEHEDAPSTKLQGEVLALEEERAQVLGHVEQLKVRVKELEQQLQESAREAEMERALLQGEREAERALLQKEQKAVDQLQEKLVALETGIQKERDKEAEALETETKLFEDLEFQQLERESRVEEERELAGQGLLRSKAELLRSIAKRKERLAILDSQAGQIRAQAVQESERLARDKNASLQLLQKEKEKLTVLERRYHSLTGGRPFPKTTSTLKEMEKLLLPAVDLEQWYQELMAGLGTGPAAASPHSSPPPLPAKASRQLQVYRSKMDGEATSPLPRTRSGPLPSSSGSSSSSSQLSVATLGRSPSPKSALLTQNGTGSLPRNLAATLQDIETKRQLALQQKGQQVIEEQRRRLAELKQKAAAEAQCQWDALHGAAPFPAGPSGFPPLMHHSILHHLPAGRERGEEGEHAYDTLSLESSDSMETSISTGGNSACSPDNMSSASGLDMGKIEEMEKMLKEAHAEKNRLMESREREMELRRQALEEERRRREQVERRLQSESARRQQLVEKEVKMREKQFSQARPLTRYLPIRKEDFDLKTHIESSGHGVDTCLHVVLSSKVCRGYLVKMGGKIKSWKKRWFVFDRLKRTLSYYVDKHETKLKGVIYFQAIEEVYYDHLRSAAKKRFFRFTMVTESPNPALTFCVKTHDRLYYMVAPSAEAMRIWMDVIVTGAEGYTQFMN
UniProt O43175: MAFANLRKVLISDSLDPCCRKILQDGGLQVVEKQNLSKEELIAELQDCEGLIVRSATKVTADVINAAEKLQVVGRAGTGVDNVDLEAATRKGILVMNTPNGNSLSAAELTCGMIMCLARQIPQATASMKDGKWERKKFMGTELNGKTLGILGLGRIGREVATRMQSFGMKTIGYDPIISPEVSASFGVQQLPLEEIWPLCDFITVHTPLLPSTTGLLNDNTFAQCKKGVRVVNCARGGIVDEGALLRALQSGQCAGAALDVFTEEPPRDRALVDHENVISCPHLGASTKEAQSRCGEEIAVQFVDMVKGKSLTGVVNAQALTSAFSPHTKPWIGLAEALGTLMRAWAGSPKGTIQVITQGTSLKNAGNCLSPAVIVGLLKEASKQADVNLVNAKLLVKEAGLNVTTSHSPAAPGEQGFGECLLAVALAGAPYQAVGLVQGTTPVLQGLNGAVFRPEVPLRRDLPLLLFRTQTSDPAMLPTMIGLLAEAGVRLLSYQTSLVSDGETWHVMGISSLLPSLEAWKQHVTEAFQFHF
UniProt O15173: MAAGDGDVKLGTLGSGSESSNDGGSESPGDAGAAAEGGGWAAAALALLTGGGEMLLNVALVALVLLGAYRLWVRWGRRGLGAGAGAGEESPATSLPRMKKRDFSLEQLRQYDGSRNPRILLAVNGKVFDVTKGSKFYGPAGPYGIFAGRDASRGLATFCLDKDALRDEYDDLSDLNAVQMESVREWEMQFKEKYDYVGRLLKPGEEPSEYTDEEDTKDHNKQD
UniProt Q96BD5: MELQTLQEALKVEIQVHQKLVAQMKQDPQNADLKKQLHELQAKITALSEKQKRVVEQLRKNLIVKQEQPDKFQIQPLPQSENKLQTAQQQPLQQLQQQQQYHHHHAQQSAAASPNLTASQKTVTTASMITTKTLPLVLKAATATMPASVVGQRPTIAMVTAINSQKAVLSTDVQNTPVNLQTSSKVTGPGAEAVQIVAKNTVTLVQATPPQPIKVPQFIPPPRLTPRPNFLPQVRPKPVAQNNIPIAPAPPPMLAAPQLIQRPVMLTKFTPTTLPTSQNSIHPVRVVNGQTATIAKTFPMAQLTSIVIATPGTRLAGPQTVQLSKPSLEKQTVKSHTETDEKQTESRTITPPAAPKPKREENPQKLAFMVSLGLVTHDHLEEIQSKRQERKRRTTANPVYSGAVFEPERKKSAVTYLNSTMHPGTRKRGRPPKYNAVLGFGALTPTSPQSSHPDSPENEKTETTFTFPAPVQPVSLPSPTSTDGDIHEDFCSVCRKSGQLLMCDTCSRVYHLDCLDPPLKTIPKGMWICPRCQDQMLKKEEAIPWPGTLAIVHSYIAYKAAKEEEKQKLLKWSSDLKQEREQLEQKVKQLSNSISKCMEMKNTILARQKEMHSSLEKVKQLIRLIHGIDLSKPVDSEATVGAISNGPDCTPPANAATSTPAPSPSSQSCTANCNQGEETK
UniProt P48426: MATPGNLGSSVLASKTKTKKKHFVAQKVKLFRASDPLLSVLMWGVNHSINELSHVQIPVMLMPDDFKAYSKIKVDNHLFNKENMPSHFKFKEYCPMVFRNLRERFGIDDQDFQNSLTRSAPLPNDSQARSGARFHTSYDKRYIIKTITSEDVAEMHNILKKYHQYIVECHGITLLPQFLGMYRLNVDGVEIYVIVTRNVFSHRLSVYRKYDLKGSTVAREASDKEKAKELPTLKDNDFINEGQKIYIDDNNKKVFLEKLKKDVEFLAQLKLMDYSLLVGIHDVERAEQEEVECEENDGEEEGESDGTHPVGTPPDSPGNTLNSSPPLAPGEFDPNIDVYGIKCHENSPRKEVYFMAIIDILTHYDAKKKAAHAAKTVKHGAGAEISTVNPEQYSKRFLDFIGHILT
UniProt O95336: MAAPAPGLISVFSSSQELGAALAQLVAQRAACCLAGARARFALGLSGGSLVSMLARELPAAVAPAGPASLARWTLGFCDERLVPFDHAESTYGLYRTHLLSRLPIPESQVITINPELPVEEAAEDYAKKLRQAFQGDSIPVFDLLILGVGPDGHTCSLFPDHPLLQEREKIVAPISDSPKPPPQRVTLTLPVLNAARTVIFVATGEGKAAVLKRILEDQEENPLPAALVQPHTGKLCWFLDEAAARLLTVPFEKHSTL
UniProt Q9H8W4: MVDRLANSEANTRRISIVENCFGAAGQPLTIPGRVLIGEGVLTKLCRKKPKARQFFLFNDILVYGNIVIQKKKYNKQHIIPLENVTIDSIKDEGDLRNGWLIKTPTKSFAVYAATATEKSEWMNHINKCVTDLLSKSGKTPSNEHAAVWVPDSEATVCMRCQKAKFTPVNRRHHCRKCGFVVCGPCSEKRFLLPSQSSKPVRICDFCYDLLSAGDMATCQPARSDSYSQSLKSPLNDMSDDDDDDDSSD
UniProt Q8NCC3: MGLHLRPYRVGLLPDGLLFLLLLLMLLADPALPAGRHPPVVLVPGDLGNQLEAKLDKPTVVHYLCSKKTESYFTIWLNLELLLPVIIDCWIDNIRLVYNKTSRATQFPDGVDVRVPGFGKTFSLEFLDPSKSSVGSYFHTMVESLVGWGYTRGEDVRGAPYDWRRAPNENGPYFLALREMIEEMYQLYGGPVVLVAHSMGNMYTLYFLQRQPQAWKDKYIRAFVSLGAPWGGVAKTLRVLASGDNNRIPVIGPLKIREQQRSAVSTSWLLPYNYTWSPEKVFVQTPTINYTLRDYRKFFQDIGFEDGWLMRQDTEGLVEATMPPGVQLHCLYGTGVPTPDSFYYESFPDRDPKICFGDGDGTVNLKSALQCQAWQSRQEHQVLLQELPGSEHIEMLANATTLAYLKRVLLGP
UniProt Q8TBX8: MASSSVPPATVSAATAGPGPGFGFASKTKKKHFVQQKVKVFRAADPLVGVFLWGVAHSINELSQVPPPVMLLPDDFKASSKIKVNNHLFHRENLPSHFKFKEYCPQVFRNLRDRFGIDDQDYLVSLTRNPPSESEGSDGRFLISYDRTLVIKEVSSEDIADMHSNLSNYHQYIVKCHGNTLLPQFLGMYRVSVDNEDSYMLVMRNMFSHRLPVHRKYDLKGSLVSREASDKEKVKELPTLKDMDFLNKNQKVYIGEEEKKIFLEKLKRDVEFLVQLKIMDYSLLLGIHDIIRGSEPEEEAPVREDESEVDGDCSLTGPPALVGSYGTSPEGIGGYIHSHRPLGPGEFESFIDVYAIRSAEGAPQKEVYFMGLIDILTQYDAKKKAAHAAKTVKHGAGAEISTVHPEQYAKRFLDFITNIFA

Legend:
Experiment in all cases: log2 fold change, soluble protein after heating vs DMSO (PISA); higher = thermal stabilisation; K562 lysate, 10 uM; active = over 0.2 and 3.5 SD of the protein, either way, in both replicates (recomputed)
[1] = compound: C#Cc1cccc(Nc2ncnc3cc(OCCOC)c(OCCOC)cc23)c1 [erlotinib]
Procedure, shortened: (§1)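 The values are log-two fold changes in thermal stability compared with solvent controls and come from duplicates. They were obtained by TMTpro 16plex LC-MS/MS, with channel sums equalised, on the supernatant after 21,000xg for 90 min. That supernatant came from crude K562 extract at 1 mg/mL protein treated with 10 μM compound for 30 min, heated for 3 min across 48°C-58°C, pooled and brought to 0.5% NP-40 at 4°C.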

[2] = compound: C/C(=N\NC(=O)C1=CC(=CC=C1)S(=O)(=O)N2CCOCC2)/C3=C(C=CC(=C3)Cl)O
Procedure, shortened: as §1

[3] = compound: C1=CC(=CC=C1C2=NC3=C(N2)C=C(C=C3)C(=O)N)OC4=CC=C(C=C4)Cl
Procedure, shortened: as §1

[4] = compound: C1=CC2=C(C=CC(=C2)/C=C\3/C(=O)NC(=NCC4=CC=CS4)S3)N=C1
Procedure, shortened: as §1

[5] = compound: C1=CC2=NC=CN=C2C=C1/C=C/3\C(=O)NC(=O)S3
Procedure, shortened: as §1

[6] = compound: C1=CC=C(C=C1)C2=NC(=C(N2)C3=CC=NC=C3)C4=CC(=C(C=C4)Cl)O
Procedure, shortened: as §1

[7] = compound: C1=CC=C2C(=C1)C3=NNC4=CC=CC(=C43)C2=O
Procedure, shortened: as §1

[8] = compound: C1CCN(C1)C(=O)NC2=CC=CC(=C2)NC3=NC=C(C(=N3)NCCC4=CN=CN4)Br
Procedure, shortened: as §1

[9] = compound: C1CN(CCC1(CC2=CC=C(C=C2)Cl)N)C3=NC=NC4=C3C=CN4
Procedure, shortened: as §1

[10] = compound: C1COCCN1CCN2C3=CC=CC=C3N=C2NC(=O)C4=CC(=CC=C4)[N+](=O)[O-] [IRAK-1-4 Inhibitor I]
Procedure, shortened: as §1

Measured: log2 fold change

PLCL1 (UniProt Q15111)
inactive: [1] 0.043 | [2] -0.029 | [3] 0.013 | [4] -0.069 | [5] -0.044 | [6] -0.001 | [7] -0.074 | [8] -0.011 | [9] 0.05 | [10] 0.073

PITPNB isoform 3 (UniProt P48739)
inactive: [1] -0.01 | [2] 0.054 | [3] -0.008 | [4] -0.013 | [5] -0.002 | [6] -0.026 | [7] 0.02 | [8] -0.003 | [9] 0.004 | [10] -0.002

PHOSPHO2 (UniProt Q8TCD6)
inactive: [1] -0.018 | [2] -0.225 | [3] 0.046 | [4] -0.032 | [5] -0.027 | [6] -0.002 | [7] 0.072 | [8] 0.224 | [9] -0.16 | [10] -0.014

PIH1D1 (UniProt Q9NWS0)
inactive: [1] -0.011 | [2] 0.012 | [3] -0.013 | [4] 0.024 | [5] 0.009 | [6] 0.009 | [7] -0.003 | [8] -0.008 | [9] 0 | [10] 0.02

Reprinted at random: two records from the list
PHOSPHO2 (UniProt Q8TCD6)
inactive: [1] -0.018 | [2] -0.225 | [3] 0.046 | [4] -0.032 | [5] -0.027 | [6] -0.002 | [7] 0.072 | [8] 0.224 | [9] -0.16 | [10] -0.014

PITPNB isoform 3 (UniProt P48739)
inactive: [1] -0.01 | [2] 0.054 | [3] -0.008 | [4] -0.013 | [5] -0.002 | [6] -0.026 | [7] 0.02 | [8] -0.003 | [9] 0.004 | [10] -0.002

Later entries.

PLEKHA5 isoform 6 (UniProt Q9HAU0)
inactive: [1] -0.007 | [2] -0.021 | [3] 0.016 | [4] -0.058 | [5] 0.087 | [6] -0.021 | [7] -0.007 | [8] -0.002 | [9] -0.04 | [10] 0.019

PIGG (UniProt Q5H8A4)
inactive: [1] -0.023 | [2] -0.057 | [3] -0.004 | [4] 0.044 | [5] -0.017 | [6] -0.062 | [7] -0.036 | [8] 0 | [9] 0.011 | [10] 0.008

PIBF1 (UniProt Q8WXW3)
inactive: [1] -0.042 | [2] 0.035 | [3] -0.057 | [4] -0.094 | [5] 0.041 | [6] 0.016 | [7] 0.002 | [8] -0.002 | [9] -0.037 | [10] -0.011

PGM2 (UniProt Q96G03)
inactive: [1] -0.012 | [2] 0.002 | [3] 0.035 | [4] 0.001 | [5] 0.012 | [6] 0 | [7] 0.026 | [8] -0.007 | [9] 0.022 | [10] -0.007

PLCG2 (UniProt P16885)
inactive: [1] -0.003 | [2] 0.298 | [3] 0.081 | [4] -0.147 | [5] -0.055 | [6] -0.066 | [7] 0.045 | [8] -0.072 | [9] -0.059 | [10] 0.163

PHLDB1 (UniProt Q86UU1)
inactive: [1] 0.01 | [2] -0.044 | [3] 0.032 | [4] -0.081 | [5] -0.031 | [6] 0.101 | [7] -0.158 | [8] -0.032 | [9] 0.068 | [10] -0.044

PKN3 (UniProt Q6P5Z2)
inactive: [1] 0 | [2] 0.165 | [3] -0.012 | [4] 0 | [5] -0.007 | [6] 0.124 | [7] 0.022 | [8] 0.014 | [9] -0.029 | [10] 0.008

PHGDH (UniProt O43175)
inactive: [1] 0.033 | [2] 0.155 | [3] 0.05 | [4] -0.222 | [5] -0.092 | [6] -0.012 | [7] 0.04 | [8] 0.045 | [9] 0.021 | [10] 0.011

PIGM (UniProt Q9H3S5)
inactive: [1] 0.378 | [2] -0.25 | [3] 0.048 | [4] 0.064 | [5] 0.034 | [6] 0.33 | [7] -0.032 | [8] -0.022 | [9] 0.07 | [10] -0.072

PGPEP1 (UniProt Q9NXJ5)
inactive: [1] -0.003 | [2] 0.102 | [3] -0.053 | [4] -0.046 | [5] 0.013 | [6] 0.014 | [7] -0.018 | [8] -0.059 | [9] 0.001 | [10] -0.003

PGRMC2 isoform 2 (UniProt O15173)
inactive: [1] -0.003 | [2] -0.319 | [3] 0.038 | [4] 0.004 | [5] 0.011 | [6] -0.026 | [7] 0.014 | [8] 0.022 | [9] 0.044 | [10] -0.003

PHF21A isoform 3 (UniProt Q96BD5)
inactive: [1] 0.047 | [2] -0.063 | [3] 0.039 | [4] 0.116 | [5] -0.091 | [6] 0.223 | [7] 0.061 | [8] 0.018 | [9] -0.014 | [10] 0.021

PIP4K2A (UniProt P48426)
inactive: [1] -0.04 | [3] 0.032 | [4] 0.001 | [5] 0.225 | [6] 0.135 | [7] 0.105 | [8] 0.103 | [9] -0.006 | [10] -0.007
active: [2] -0.239

PKNOX1 (UniProt P55347)
inactive: [1] 0.047 | [2] -0.078 | [3] 0.041 | [4] 0.07 | [5] -0.055 | [6] 0.078 | [7] -0.016 | [8] -0.036 | [9] 0.021 | [10] 0.014

PGLS (UniProt O95336)
inactive: [1] -0.019 | [2] -0.026 | [3] -0.08 | [4] -0.039 | [5] -0.039 | [6] -0.077 | [7] -0.04 | [8] -0.112 | [9] 0.025 | [10] -0.043

PLCB2 (UniProt Q00722)
inactive: [1] 0.063 | [2] 0.057 | [3] 0.036 | [4] -0.118 | [5] 0.045 | [6] 0.056 | [7] 0.049 | [8] -0.067 | [9] 0.01 | [10] -0.093

PLEKHF2 (UniProt Q9H8W4)
inactive: [1] -0.037 | [2] -0.017 | [3] 0.089 | [4] 0.022 | [5] -0.048 | [6] 0 | [7] -0.047 | [8] -0.033 | [9] 0.003 | [10] -0.022

PLA2G15 (UniProt Q8NCC3)
inactive: [1] 0.004 | [2] -0.066 | [3] -0.022 | [4] 0.021 | [5] -0.005 | [6] 0.013 | [7] 0.019 | [8] 0.036 | [9] -0.067 | [10] 0.005

PITPNA (UniProt Q00169)
inactive: [1] 0.004 | [2] 0.008 | [3] -0.04 | [4] -0.032 | [5] -0.005 | [6] 0.009 | [7] 0.019 | [8] 0.035 | [9] -0.009 | [10] -0.025

PICK1 (UniProt Q9NRD5)
inactive: [1] 0.035 | [2] -0.17 | [3] 0.026 | [4] 0.042 | [5] -0.062 | [6] -0.016 | [7] 0.024 | [8] -0.106 | [9] -0.037 | [10] -0.007

PLD3 (UniProt Q8IV08)
inactive: [1] -0.013 | [2] 0.038 | [3] -0.019 | [4] -0.033 | [5] 0.002 | [6] -0.004 | [7] -0.001 | [8] -0.034 | [9] -0.001 | [10] -0.014

PHF10 (UniProt Q8WUB8)
inactive: [1] -0.009 | [2] 0.012 | [3] 0.056 | [4] -0.01 | [5] -0.022 | [6] 0.018 | [7] 0.049 | [8] -0.054 | [9] 0.046 | [10] 0.017

PIK3R1 (UniProt P27986)
inactive: [1] -0.027 | [2] -0.4 | [3] 0.008 | [4] 0.069 | [6] 0.076 | [7] 0.089 | [8] -0.015 | [9] 0 | [10] 0.1
active: [5] 0.348

PLCD1 isoform 2 (UniProt P51178)
inactive: [1] -0.026 | [2] 0.083 | [3] -0.007 | [4] 0.006 | [5] -0.015 | [6] 0.006 | [7] -0.037 | [8] -0.07 | [9] -0.04 | [10] 0.033

PLCB3 (UniProt Q01970)
inactive: [1] -0.023 | [2] 0.048 | [3] -0.012 | [4] -0.001 | [5] -0.021 | [6] -0.013 | [7] -0.021 | [8] -0.025 | [9] 0.02 | [10] -0.03

PIP4K2C (UniProt Q8TBX8)
inactive: [1] 0.104 | [2] -0.289 | [3] 0.033 | [4] 0.004 | [6] 0.137 | [7] 0.127 | [8] 0.231 | [9] -0.055 | [10] -0.005
active: [5] 0.496
